Test results from publication doi:10.1101/2020.11.24.395905.
These are yes or no findings as the source states them, for the method shown. Binding seen in cells or lysates may run through a third protein. Some entries that bind do so weakly or less than the wild type. Where a sequence is shown, tags or fusion partners need not be part of it.

Molecular target: T1, Orco:GFP (odour receptor coreceptor fused to GFP) (Drosophila) (UniProt Q9VNB5)
T1 sequence: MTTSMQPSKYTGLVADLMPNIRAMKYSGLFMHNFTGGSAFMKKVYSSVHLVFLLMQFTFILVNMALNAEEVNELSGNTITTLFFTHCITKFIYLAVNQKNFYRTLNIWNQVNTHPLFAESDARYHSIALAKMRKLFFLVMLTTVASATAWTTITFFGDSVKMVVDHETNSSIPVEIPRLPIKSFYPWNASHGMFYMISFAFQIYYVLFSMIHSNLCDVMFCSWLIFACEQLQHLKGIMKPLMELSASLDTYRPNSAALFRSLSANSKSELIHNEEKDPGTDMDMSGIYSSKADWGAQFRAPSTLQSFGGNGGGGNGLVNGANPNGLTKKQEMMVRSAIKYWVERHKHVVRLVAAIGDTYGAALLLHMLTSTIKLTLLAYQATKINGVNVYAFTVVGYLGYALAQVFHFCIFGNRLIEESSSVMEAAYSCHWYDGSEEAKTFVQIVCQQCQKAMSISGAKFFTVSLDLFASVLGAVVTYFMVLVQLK
Experiment: co-IP

B1: KLP68D (kinesin-2β motor subunit) (protein, UniProt P46867 1-784)
chain: MSAKSRRPGTGSSQTPNECVQVVVRCRPMSNRERSERSPEVVNVYPNRGVVELQNVVDGNKEQRKVFTYDAAYDASATQTTLYHEVVFPLVSSVLEGFNGCIFAYGQTGTGKTFTMEGVRGNDELMGIIPRTFEQIWLHINRTENFQFLVDVSYLEIYMEELRDLLKPNSKHLEVRERGSGVYVPNLHAINCKSVEDMIKVMQVGNKNRTVGFTNMNEHSSRSHAIFMIKIEMCDTETNTIKVGKLNLIDLAGSERQSKTGASAERLKEASKINLALSSLGNVISALAESSPHVPYRDSKLTRLLQDSLGGNSKTIMIANIGPSNYNYNETLTTLRYASRAKSIQNQPIKNEDPQDAKLKEYQEEIERLKRLIGPQQQQRSEKQVTAKKQRVKKPKKETVTKEMSDSLQVSTIEQPVEDDSDPEGAESESDKENEAEVAKSNEELERERVENSKLAAKLAELEGQLVRGGKNLLDTYSERQIELEKKLVEIAERKKREIEIQQQLELQEETTLEIRERNVSLEQEVELKKRKLSKCYAKYLALQQELNDCKSDHNQDLRELEMAQNELVKELKRQLLIIDNFVPIEVKQRLYTQAKYDEEQEEWKFSSMSLPTPPGGDGKFSSKRPVSHPQRRRPTSEYALQEAKSNSPSSLRFKSENIVNYELEMPCRTTQEYRTPKVSASLQAVLAQAMQTGGDDIDIVDSHTNSLRSRLENIINANANGGAGPGAGVAVGSSIPNVRNIKSSRGLPSAASNLDSNRRPPTGRLPAKKPASAYPKARGLVNK
Question: For B1, which binding is on record?
Answer: The binding was “binds”.
